No constants are given. Whether binding was seen depends on the method and setting. In cells and extracts the contact can be indirect. Here binding means that the protein was enriched with, or labelled near, the bait; the list need not be complete. For part of these data: No binding means not detected with the bait. Sequences can lack the tags named with a protein.
Legend:
Test in all cases: affinity purification with mass spectrometry; 293T cells transfected 48 h with HA-tagged IFI44, IFI6 or IFI27; lysed in Co-IP buffer (100 mM NaCl, 0.5 mM EDTA, 20 mM Tris-HCl pH 7.5, 1% Triton X-100, 5% glycerol); complexes purified on anti-HA affinity columns and eluted; SDS-PAGE, in-gel trypsin, LC-MS/MS
[1] = target: T1, IFI27 fused to an HA tag (human) (UniProt P40305)
T1 sequence: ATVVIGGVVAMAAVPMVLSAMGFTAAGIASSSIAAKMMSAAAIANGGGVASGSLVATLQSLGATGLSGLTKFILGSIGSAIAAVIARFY

[2] = target: T2, IFI6 fused to an HA tag (human) (UniProt P09912)
T2 sequence: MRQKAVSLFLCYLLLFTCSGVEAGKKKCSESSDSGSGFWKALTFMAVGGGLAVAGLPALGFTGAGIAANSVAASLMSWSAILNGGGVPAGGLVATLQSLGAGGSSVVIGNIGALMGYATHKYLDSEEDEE

[3] = target: T3, interferon (IFN)-induced protein 44 (IFI44) fused to a hemagglutinin (HA) epitope tag (human) (UniProt Q8TCB0)
T3 sequence: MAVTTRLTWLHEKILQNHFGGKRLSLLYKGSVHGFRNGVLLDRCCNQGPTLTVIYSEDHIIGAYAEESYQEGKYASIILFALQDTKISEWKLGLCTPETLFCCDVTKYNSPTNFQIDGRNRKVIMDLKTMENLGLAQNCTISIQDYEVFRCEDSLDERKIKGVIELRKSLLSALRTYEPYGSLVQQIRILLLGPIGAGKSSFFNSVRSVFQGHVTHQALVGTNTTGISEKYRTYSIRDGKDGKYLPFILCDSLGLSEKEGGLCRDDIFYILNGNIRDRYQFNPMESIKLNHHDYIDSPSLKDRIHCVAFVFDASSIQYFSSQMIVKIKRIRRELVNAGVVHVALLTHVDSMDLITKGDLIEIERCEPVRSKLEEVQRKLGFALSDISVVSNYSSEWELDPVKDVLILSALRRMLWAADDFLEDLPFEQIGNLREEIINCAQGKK

B1: endogenous FK506-binding protein 5 (FKBP5) (protein, UniProt Q13451 1-457)
chain: MTTDEGAKNNEESPTATVAEQGEDITSKKDRGVLKIVKRVGNGEETPMIGDKVYVHYKGKLSNGKKFDSSHDRNEPFVFSLGKGQVIKAWDIGVATMKKGEICHLLCKPEYAYGSAGSLPKIPSNATLFFEIELLDFKGEDLFEDGGIIRRTKRKGEGYSNPNEGATVEIHLEGRCGGRMFDCRDVAFTVGEGEDHDIPIGIDKALEKMQREEQCILYLGPRYGFGEAGKPKFGIEPNAELIYEVTLKSFEKAKESWEMDTKEKLEQAAIVKEKGTVYFKGGKYMQAVIQYGKIVSWLEMEYGLSEKESKASESFLLAAFLNLAMCYLKLREYTKAVECCDKALGLDSANEKGLYRRGEAQLLMNEFESAKGDFEKVLEVNPQNKAARLQISMCQKKAKEHNERDRRIYANMFKKFAEQDAKEEANKAMGKKTSEGVTNEKGTDSQAMEEEKPEGHV
B1 was tested, and the binding [1] was “no binding”, the binding [2] was “no binding” and the binding [3] was “binds”.
